Data published in patent US20040209270A1, “Method for identifying macrocyclic polyketides” (priority 2001, published 2004).
For at least one compound, name, drawing or mass did not settle the structure.

Test system: biosensor E. coli SM 101 (EBZ512, pEBZ511, pEBZ514)
Assay: Luminescence measurements in the agar-plate diffusion assay with the E. coli biosensor system (luciferase reporter under mph(A) promoter / MphR(A) control)
Format: cell-based
Settings: assay discs, 28° C., 2 to 4 hours or 15 to 24 hours, FIG. 3
Protocol: The agar-plate diffusion assay was incubated at 28° C. for 2 to 4 hours or 15 to 24 hours and luminescence was recorded using a Berthold Luminograph LB980 (FIGS. 3, 4 and 5). If luminescence is stimulated, it is detectable within a diffusion zone around the sample placed. If the sample assayed has, at the same time, an anti-bacterial activity against the sensor organism, which is noticeable as a zone of inhibition in the very preferred embodiment of the longer incubation, then the stimulation of luminescence is detectable outside this halo of inhibition in the sub-lethal concentration range.
(§1) Agar-plate diffusion assay and luminescence measurements using the E. coli biosensor system. Illustration of the selectivity of the biological sensor component. The numbers given in the information on the test substances indicate the amounts of substance applied in μg.
as §1, with “Exemplary illustration” for “Illustration”, “stimulation of luminescence” for “selectivity”, “component as a function of time.” for “component.”

Row | SMILES | stimulation of luminescence of the biosensor system
1 | CO[C@H]1/C=C/O[C@@]2(C)Oc3c(C)c(O)c4c(O)c(c(/C=N/N5CCN(C)CC5)c(O)c4c3C2=O)NC(=O)/C(C)=C\C=C\[C@H](C)[C@H](O)[C@@H](C)[C@@H](O)[C@@H](C)[C@H](OC(C)=O)[C@@H]1C [rifampicin] | indicates
2 | CN(C)[C@@H]1C(O)=C(C(N)=O)C(=O)[C@@]2(O)C(O)=C3C(=O)c4c(O)cccc4[C@@](C)(O)[C@H]3C[C@@H]12 [tetracycline] | do not cause a stimulation of luminescence
